{"source": "PubChem BioAssay AID1159584 (Peter MacCallum Cancer Centre, 2016)", "purpose": "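Genes that CDH1-null MCF10A cells selectively depend on to survive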 (primary screen)", "system": "human MCF10A breast epithelial cells, parental and CDH1-null", "reagents": "siRNA against human genes", "read-out": "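Cell viability by CellTiter-Glo ATP luminescence, each line scaled to the mean of mock wells across plates, then CDH1-null over parental ratio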", "reading the numbers": "CDH1-null / parental viability ratio: higher = CDH1-null cells survive relatively better than parental", "note": "The whole screen tested about 18,000 reagents; shown is a random part of them. Further read-outs or replicates are left out here. No sequences are given here. Not stated in the record: the amount of reagent, the time to read-out."}
The opening 2 records as a preview:
{"gene": "RFX5", "PubChem SID": "SID135622055", "CDH1-null / parental viability ratio": 1.04}
{"gene": "NECAP1", "PubChem SID": "SID135623411", "CDH1-null / parental viability ratio": 1.12}

Main list, from the start:
{"gene": "RFX5", "PubChem SID": "SID135622055", "CDH1-null / parental viability ratio": 1.04}
{"gene": "NECAP1", "PubChem SID": "SID135623411", "CDH1-null / parental viability ratio": 1.12}
{"gene": "TMEM200B", "PubChem SID": "SID135624699", "CDH1-null / parental viability ratio": 1.05}
{"gene": "PUDP", "PubChem SID": "SID152156467", "CDH1-null / parental viability ratio": 1}
{"gene": "PCDHAC2", "PubChem SID": "SID134317479", "CDH1-null / parental viability ratio": 1.6}
{"gene": "SPRR4", "PubChem SID": "SID134321650", "CDH1-null / parental viability ratio": 1}
{"gene": "TSPAN3", "PubChem SID": "SID135622000", "CDH1-null / parental viability ratio": 0.82}
{"gene": "PLAC8L1", "PubChem SID": "SID135624450", "CDH1-null / parental viability ratio": 1.32}
{"gene": "CEP57", "PubChem SID": "SID134324515", "CDH1-null / parental viability ratio": 0.88}
{"gene": "MIR22HG", "PubChem SID": "SID135622868", "CDH1-null / parental viability ratio": 1.25}
{"gene": "ARG1", "PubChem SID": "SID134314614", "CDH1-null / parental viability ratio": 0.89}
{"gene": "PSMA4", "PubChem SID": "SID135623297", "CDH1-null / parental viability ratio": 1.41}
{"gene": "RAB29", "PubChem SID": "SID134315055", "CDH1-null / parental viability ratio": 0.8}
{"gene": "OR1L3", "PubChem SID": "SID135625138", "CDH1-null / parental viability ratio": 1.18}
